No constants are given. Whether binding was seen depends on the method and setting.

By UniProt entry, the sequences of proteins in these tests, tags left out.
UniProt P45684: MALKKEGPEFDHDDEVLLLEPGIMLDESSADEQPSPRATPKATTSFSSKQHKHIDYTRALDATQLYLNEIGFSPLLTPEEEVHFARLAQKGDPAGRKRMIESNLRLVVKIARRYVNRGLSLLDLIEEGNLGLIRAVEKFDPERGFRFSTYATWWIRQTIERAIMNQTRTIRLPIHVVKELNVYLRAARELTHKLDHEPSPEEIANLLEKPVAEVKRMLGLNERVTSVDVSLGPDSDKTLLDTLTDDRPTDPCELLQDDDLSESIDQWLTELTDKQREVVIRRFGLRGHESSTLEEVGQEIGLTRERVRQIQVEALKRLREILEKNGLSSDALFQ

For assay [1], the target named is (his)6-CrlSTM (S. Typhimurium Crl, purified) (S. Typhimurium) (UniProt Q7CR52). The assay is described as follows: ITC; in vitro with purified proteins; conditions in Supplementary Methods; both purified. Background: ITC needs no label: the signal is the heat of the interaction.
Assay [2] has as its target CrlSTM-T18 (Crl from S. Typhimurium fused to T18) (S. Typhimurium) (UniProt Q7CR52). Kind of assay: two-hybrid; bacterial adenylate cyclase-based two hybrid (BACTH) in E. coli cya DHT1; Crl-T18 and T25-σ^S hybrids; 30 °C, 0.5 mM IPTG; β-galactosidase activity in Miller units.

Turning to “(his)6-σ^SPA wild type (P. aeruginosa σ^S, purified) (from UniProt P45684 1-334)”, the binding entry in assay [1] is on record as “no binding”.

Take “T25-σ^SPA (P. aeruginosa σ^S fused to T25) (from UniProt P45684 1-334)”: in assay [2], the binding result is reported as “no binding”.

The record behind these values is article PMC4559669.
